These are yes or no findings as the source states them, for the method shown. In cells and extracts the contact can be indirect. Some binding calls cover weakened binding; strength is not graded here.
Biological target: FLAG-tagged FAM114A1 recombinant protein (UniProt Q9D281)
Experiment: co-IP

Amino acid sequences for entries named in this document (tags omitted).
UniProt Q9D281: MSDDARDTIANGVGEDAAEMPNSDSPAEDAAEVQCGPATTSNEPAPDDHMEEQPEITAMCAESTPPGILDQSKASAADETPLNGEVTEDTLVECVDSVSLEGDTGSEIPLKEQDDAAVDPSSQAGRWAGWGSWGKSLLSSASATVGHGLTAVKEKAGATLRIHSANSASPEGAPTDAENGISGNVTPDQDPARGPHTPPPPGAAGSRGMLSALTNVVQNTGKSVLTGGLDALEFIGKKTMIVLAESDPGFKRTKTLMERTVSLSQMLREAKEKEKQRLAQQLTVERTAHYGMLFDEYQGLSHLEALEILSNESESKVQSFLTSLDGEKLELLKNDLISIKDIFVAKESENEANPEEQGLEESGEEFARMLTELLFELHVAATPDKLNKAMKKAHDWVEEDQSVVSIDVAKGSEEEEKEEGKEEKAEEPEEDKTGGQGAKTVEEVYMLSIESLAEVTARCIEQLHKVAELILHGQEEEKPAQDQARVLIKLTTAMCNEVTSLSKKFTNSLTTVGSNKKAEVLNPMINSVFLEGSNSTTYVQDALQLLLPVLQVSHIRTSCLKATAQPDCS

- binding: binds
B1: AGTRAP in NIH/3T3 fibroblast cells (protein, UniProt Q9WVK0 1-161)
chain: MELPAVNLKVILLVHWLLTTWGCLVFSSSYAWGNFTILALGVWAVAQRDSIDAIGMFLGGLVATIFLDIIYISIFYSSVATGDTGRFGAGMAILSLLLKPFSCCLVYHMHRERGGELPLRPDFFGPSQEHSAYQTIDSSSDAAADPFASLENKGQAVPRGY

Reference: doi:10.1101/2021.02.20.432115
